Test [1] deals with T1, internal GGX peptide GGMoxALALAVTK (human).
T1 sequence (peptide, oxidised methionine (Mox) at position 3): GGMALALAVTK
Kind of test: immunoaffinity enrichment from trypsin-digested HEK293 lysate, LC-MS/MS extracted ion chromatograms (FIG. 3D).

Test [2] deals with T2, internal GGX peptide GGMLTNAR (human).
T2 sequence (peptide): GGMLTNAR
The test is described as above.

In test [3] the target is T3, internal GGX peptide … (human).
T3 sequence (peptide): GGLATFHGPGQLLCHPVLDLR
Kind of test: immunoaffinity enrichment from trypsin-digested HEK293 lysate, LC-MS/MS extracted ion chromatograms (FIG. 3E).

The target in test [4] is T4, internal GGX peptide … (human).
T4 sequence (peptide): GGMTSTYGR
The test is described as above. The source holds these as a separate data set.

Positions count from the first letter of the chain named. No constants are given. Whether binding was seen depends on the method and setting. Binding seen in cells or lysates may run through a third protein. Some results given as binding are weak or reduced against the parent protein; the word gives no strength.

This passage reports binding results from patent US20240109958A1.

B1: anti-GGX monoclonal antibody 2B12 (rabbit IgG) (antibody, V domains shown)
VH: QSVEESGGGLVTPGGALTLTCTASGFSLNRHWMNWVRQAPGKGLEWIGAINESGRTYYATWAKGRFFISKTTTTVDLKITSPTTADTATYFCVRDDDVSNFWGPGTLVTVSS
VL: DPMLTQTPSSVSAAVGGTVSINCQSTKSVYKYNHLSWYQQKPGQPPKQLIFPASTLQSGVPSRFSGSGSGTQFTLTISDVQCDDAATYYCLGLYDCRSGDCNVFGGGTKLEIKG
For the molecule B1, the binding result in test [1] and in test [2] was “binds” throughout.

B2: anti-GGX monoclonal antibody 2E9 (rabbit IgG) (antibody, V domains shown)
VH: QKQLMESGGRLVTPGTPLTLTCKVSGFSLSSYYMNWVRQAPGKGLEWIGIMFPNGKIYYATWAKGRFTISKTSTTVDLKIISPTTEDTATYFCTGDDSGDVNIWGPGTLVTVSS
VL: DIVLTQTASPVSAAVGGTVTINCQSSQSVYTNNRLAWYQQKPGQPAKEMIYGASTLPSGVSSRFKGSGSGTQFALTISDVQCDDAATYYCLGEFDCTSADCFVFGGGTEVVVKG
As for B2, the binding result in test [3] and in test [4] was “binds” each time.

B3: anti-GGX monoclonal antibody 2H2 (rabbit IgG) (antibody, V domains shown)
VH: QSVEESRGRLVTPGTPLTLTCKVSGFSLSSYYMNWVRQAPGKGLEWIGIMFPNGKIYYATWAKGRFTISKTSTTVDLKIISPTTEDTATYFCTGDDSGDVNIWGPGTLVTVSS
VL: B2 VL with I2P, V3M, T31S, A46P, A74T, E93T, F94Y, T97L, F102L, V103A
On to B3, for which the binding entry in test [3] and in test [4] was “binds” in each case.
